PubChem BioAssay AID1259405 – NCATS – 2018

Aim: 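Mouse-designed siRNAs used to find CHO productivity engineering targets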 (primary screen)
Cell system: Chinese hamster CHO-K1 ovary cells with stable secreted eGFP expression
Reagent: single siRNA against mouse genes, 0.8 pmol siRNA per well (2 µl of 400 nM stock)
Duration: 3 days
Measurement: 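Per-well intracellular GFP measured by laser scanning cytometry, plus viability from ATP luminescence, each relative to plate median of non-targeting control wells, in %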
Scale: GFP, % of control: higher = more GFP per well, higher productivity; viability (ATP), % of control: higher = more viable cells (more ATP)
Rule for the call: 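Called active when intracellular GFP, relative to negative control, is at or above 120%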
Shown is one part, drawn at random, of about 50,000 deposited reagents. Of all reagents, about 4,000 (8%) got an active call. 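Mouse siRNA library applied to hamster cells; one well for each siRNA.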 The numbers tell different reagents against one gene apart. Reagent sequences are not shown.

| target | reagent | GFP, % of control | viability (ATP), % of control | activity call |
| --- | --- | --- | --- | --- |
| Adgre4 (adhesion G protein-coupled receptor E4) | 1 | 34.5 | 51.9 | inactive |
| Adgre4 (adhesion G protein-coupled receptor E4) | 2 | 79.3 | 74.9 | inactive |
| Adgre4 (adhesion G protein-coupled receptor E4) | 3 | 75.5 | 71.7 | inactive |
| Asrgl1 (asparaginase like 1) | 1 | 79.9 | 78.8 | inactive |
| Asrgl1 (asparaginase like 1) | 2 | 69.9 | 88.1 | inactive |
| Asrgl1 (asparaginase like 1) | 3 | 45.6 | 67.5 | inactive |
| Grk3 (G protein-coupled receptor kinase 3) | 1 | 59.6 | 68 | inactive |
| Insm2 (insulinoma-associated 2) | 1 | 55.6 | 38.4 | inactive |
| Insm2 (insulinoma-associated 2) | 2 | 116 | 68.9 | inactive |
| Insm2 (insulinoma-associated 2) | 3 | 120 | 87.8 | inactive |
| Trim35 (tripartite motif-containing 35) | 1 | 45.2 | 30.2 | inactive |
| Trim35 (tripartite motif-containing 35) | 2 | 105 | 119 | inactive |
| Trim35 (tripartite motif-containing 35) | 3 | 103 | 108 | inactive |
| Uhrf1 (ubiquitin-like, containing PHD and RING finger domains, 1) | 1 | 55.7 | 88.3 | inactive |
| Uhrf1 (ubiquitin-like, containing PHD and RING finger domains, 1) | 2 | 62.8 | 95 | inactive |
| Uhrf1 (ubiquitin-like, containing PHD and RING finger domains, 1) | 3 | 64.8 | 93.9 | inactive |
| Kcnj16 | 1 | 50.4 | 56.1 | inactive |
| Kcnj16 | 2 | 58.7 | 60.4 | inactive |
| Kcnj16 | 3 | 122 | 74.4 | active |
| Macrod2 (mono-ADP ribosylhydrolase 2) | 1 | 69.8 | 76.1 | inactive |
| Macrod2 (mono-ADP ribosylhydrolase 2) | 2 | 52.2 | 64.9 | inactive |
| Macrod2 (mono-ADP ribosylhydrolase 2) | 3 | 74.9 | 81.2 | inactive |
| Tcap (titin-cap) | 1 | 55.6 | 61.4 | inactive |
| Tcap (titin-cap) | 2 | 94.9 | 77.2 | inactive |
| Tcap (titin-cap) | 3 | 76.5 | 81.9 | inactive |
| 1810024B03Rik (RIKEN cDNA 1810024B03 gene) | 1 | 91.8 | 59.3 | inactive |
| 1810024B03Rik (RIKEN cDNA 1810024B03 gene) | 2 | 75.6 | 88.7 | inactive |
| 1810024B03Rik (RIKEN cDNA 1810024B03 gene) | 3 | 83.1 | 89.1 | inactive |
| Ifi27l2a (interferon, alpha-inducible protein 27 like 2A) | 1 | 97.5 | 62.7 | inactive |
| Ifi27l2a (interferon, alpha-inducible protein 27 like 2A) | 2 | 57 | 36.1 | inactive |
| Ifi27l2a (interferon, alpha-inducible protein 27 like 2A) | 3 | 78.7 | 80.6 | inactive |
| Msh6 (mutS homolog 6) | 1 | 70.8 | 95.1 | inactive |
| Msh6 (mutS homolog 6) | 2 | 118 | 89.9 | inactive |
| Msh6 (mutS homolog 6) | 3 | 93.4 | 60.8 | inactive |
| Ptprk (protein tyrosine phosphatase receptor type K) | 1 | 50.4 | 72.3 | inactive |
| Ptprk (protein tyrosine phosphatase receptor type K) | 2 | 102 | 60.6 | inactive |
| Ptprk (protein tyrosine phosphatase receptor type K) | 3 | 87.6 | 75.7 | inactive |
| Sidt1 (SID1 transmembrane family, member 1) | 1 | 61.1 | 44.3 | inactive |
| Sidt1 (SID1 transmembrane family, member 1) | 2 | 83.5 | 99.1 | inactive |
| Sidt1 (SID1 transmembrane family, member 1) | 3 | 118 | 93.2 | inactive |
| Igflr1 (IGF-like family receptor 1) | 1 | 71.6 | 41.8 | inactive |
| Igflr1 (IGF-like family receptor 1) | 2 | 108 | 75.3 | inactive |
| Igflr1 (IGF-like family receptor 1) | 3 | 103 | 83.9 | inactive |
| Uba7 (ubiquitin-like modifier activating enzyme 7) | 1 | 62.6 | 72.3 | inactive |
| Uba7 (ubiquitin-like modifier activating enzyme 7) | 2 | 57.1 | 81.8 | inactive |
| Uba7 (ubiquitin-like modifier activating enzyme 7) | 3 | 126 | 113 | active |
| Tasp1 (taspase, threonine aspartase 1) | 1 | 90.2 | 72.9 | inactive |
| Tasp1 (taspase, threonine aspartase 1) | 2 | 77.8 | 56.3 | inactive |
| Tasp1 (taspase, threonine aspartase 1) | 3 | 63 | 56.3 | inactive |

Part of the list above, set out differently.
{"target":"Macrod2 (mono-ADP ribosylhydrolase 2)","reagent":2,"GFP, % of control":52.2,"viability (ATP), % of control":64.9,"activity call":"inactive"}
{"target":"Macrod2 (mono-ADP ribosylhydrolase 2)","reagent":3,"GFP, % of control":74.9,"viability (ATP), % of control":81.2,"activity call":"inactive"}
{"target":"Tcap (titin-cap)","reagent":1,"GFP, % of control":55.6,"viability (ATP), % of control":61.4,"activity call":"inactive"}
{"target":"Tcap (titin-cap)","reagent":2,"GFP, % of control":94.9,"viability (ATP), % of control":77.2,"activity call":"inactive"}
{"target":"Tcap (titin-cap)","reagent":3,"GFP, % of control":76.5,"viability (ATP), % of control":81.9,"activity call":"inactive"}
{"target":"1810024B03Rik (RIKEN cDNA 1810024B03 gene)","reagent":1,"GFP, % of control":91.8,"viability (ATP), % of control":59.3,"activity call":"inactive"}
{"target":"1810024B03Rik (RIKEN cDNA 1810024B03 gene)","reagent":2,"GFP, % of control":75.6,"viability (ATP), % of control":88.7,"activity call":"inactive"}
{"target":"1810024B03Rik (RIKEN cDNA 1810024B03 gene)","reagent":3,"GFP, % of control":83.1,"viability (ATP), % of control":89.1,"activity call":"inactive"}

Continued:
| target | reagent | GFP, % of control | viability (ATP), % of control | activity call |
| --- | --- | --- | --- | --- |
| Slc1a5 | 1 | 70 | 47.7 | inactive |
| Slc1a5 | 2 | 89.8 | 77.2 | inactive |
| Slc1a5 | 3 | 96.5 | 79 | inactive |
| Chrna1 (cholinergic receptor nicotinic alpha 1 subunit) | 1 | 76.6 | 87.9 | inactive |
| Chrna1 (cholinergic receptor nicotinic alpha 1 subunit) | 2 | 60.2 | 72.7 | inactive |
| Chrna1 (cholinergic receptor nicotinic alpha 1 subunit) | 3 | 57 | 65.5 | inactive |
| Pla2g1b (phospholipase A2, group IB, pancreas) | 1 | 70.3 | 49.3 | inactive |
| Pla2g1b (phospholipase A2, group IB, pancreas) | 2 | 55.9 | 51.8 | inactive |
| Pla2g1b (phospholipase A2, group IB, pancreas) | 3 | 73 | 74.3 | inactive |
| H1f5 (H1.5 linker histone, cluster member) | 1 | 48 | 47.9 | inactive |
| H1f5 (H1.5 linker histone, cluster member) | 2 | 115 | 97.4 | inactive |
| H1f5 (H1.5 linker histone, cluster member) | 3 | 26.6 | 57.7 | inactive |
| Dcaf13 (DDB1 and CUL4 associated factor 13) | 1 | 41.2 | 41.8 | inactive |
| Dcaf13 (DDB1 and CUL4 associated factor 13) | 2 | 67.5 | 81.8 | inactive |
| Dcaf13 (DDB1 and CUL4 associated factor 13) | 3 | 95.9 | 101 | inactive |
| Runx3 (runt related transcription factor 3) | 1 | 45.7 | 49.3 | inactive |
| Runx3 (runt related transcription factor 3) | 2 | 62.8 | 73.1 | inactive |
| Runx3 (runt related transcription factor 3) | 3 | 78 | 89.1 | inactive |
| Sfxn5 (sideroflexin 5) | 1 | 96.3 | 65.2 | inactive |
| Sfxn5 (sideroflexin 5) | 2 | 63.7 | 47 | inactive |
| Sfxn5 (sideroflexin 5) | 3 | 57.7 | 41.7 | inactive |
| Rps4l (ribosomal protein S4-like) | 1 | 89.7 | 65.2 | inactive |
| Rps4l (ribosomal protein S4-like) | 2 | 95.3 | 54.9 | inactive |
| Rps4l (ribosomal protein S4-like) | 3 | 51.5 | 74.9 | inactive |
| Sox6 (SRY (sex determining region Y)-box 6) | 1 | 42.5 | 89.1 | inactive |
| Sox6 (SRY (sex determining region Y)-box 6) | 2 | 62.5 | 77.7 | inactive |
| Sox6 (SRY (sex determining region Y)-box 6) | 3 | 63.3 | 74.8 | inactive |
| Arhgef10 (Rho guanine nucleotide exchange factor 10) | 1 | 21.3 | 47.5 | inactive |
| Arhgef10 (Rho guanine nucleotide exchange factor 10) | 2 | 43.9 | 56.8 | inactive |
| Egfl6 (EGF-like-domain, multiple 6) | 1 | 73.1 | 68.8 | inactive |
| Egfl6 (EGF-like-domain, multiple 6) | 2 | 85.7 | 92 | inactive |
| Egfl6 (EGF-like-domain, multiple 6) | 3 | 45.3 | 49 | inactive |
| Tpbpa (trophoblast specific protein alpha) | 1 | 93.1 | 49.4 | inactive |
| Tpbpa (trophoblast specific protein alpha) | 2 | 73.7 | 93.5 | inactive |
| Tpbpa (trophoblast specific protein alpha) | 3 | 196 | 138 | active |
| Hspa4l (heat shock protein 4 like) | 1 | 102 | 143 | inactive |
| Hspa4l (heat shock protein 4 like) | 2 | 64.8 | 79.5 | inactive |
| Ccl9 (C-C motif chemokine ligand 9) | 1 | 52.3 | 49 | inactive |
| Ccl9 (C-C motif chemokine ligand 9) | 2 | 62.4 | 75.9 | inactive |
| Ccl9 (C-C motif chemokine ligand 9) | 3 | 43.5 | 58.9 | inactive |
| Czib (CXXC motif containing zinc binding protein) | 1 | 86.7 | 97.8 | inactive |
| Czib (CXXC motif containing zinc binding protein) | 2 | 82.1 | 53 | inactive |
| Czib (CXXC motif containing zinc binding protein) | 3 | 72.2 | 75.9 | inactive |
| Scamp5 | 1 | 56 | 84 | inactive |
| Scamp5 | 2 | 52.7 | 61 | inactive |
| Scamp5 | 3 | 84.6 | 88.5 | inactive |
| C5ar1 (complement component 5a receptor 1) | 1 | 71.7 | 69.5 | inactive |
| C5ar1 (complement component 5a receptor 1) | 2 | 86.6 | 101 | inactive |
| C5ar1 (complement component 5a receptor 1) | 3 | 46.4 | 48.2 | inactive |
| Ankrd1 (ankyrin repeat domain 1) | 1 | 120 | 97 | inactive |
| Ankrd1 (ankyrin repeat domain 1) | 2 | 72.3 | 65.6 | inactive |
| Ankrd1 (ankyrin repeat domain 1) | 3 | 101 | 86.9 | inactive |
| Gdf2 (growth differentiation factor 2) | 1 | 53.6 | 58.1 | inactive |
| Gdf2 (growth differentiation factor 2) | 2 | 35.3 | 46.5 | inactive |
| Gdf2 (growth differentiation factor 2) | 3 | 35.8 | 59.2 | inactive |
| Gse1 (genetic suppressor element 1, coiled-coil protein) | 1 | 74.5 | 61.6 | inactive |
| Gse1 (genetic suppressor element 1, coiled-coil protein) | 2 | 50.9 | 74.6 | inactive |
| Gse1 (genetic suppressor element 1, coiled-coil protein) | 3 | 180 | 83.1 | active |
